SMILES strings stand for the structures. This is one part of the list. These are raw signals, not scaled to a control.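 Primary screen: polymyxin B was added at a level permeabilizing Salmonella outer membranes while sparing inner membranes. DMSO wells, both with and without polymyxin B, established maximum growth. Plate-to-plate variation meant each plate was ranked on its own, and the lowest-OD600 compounds were selected as hits.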

The results in this text go back to the supplement of paper PMC12889115.

The subject of this assay is Salmonella enterica serovar Typhimurium SL1344. Description: bacterial growth OD600 after 18 h with compound and polymyxin B; higher = more bacterial growth (less inhibition). The conditions noted are these: 50 µM, Mueller-Hinton broth.

With `CCOc1ccccc1CN1CCN(Cc2ccc3nsnc3c2)CC1CCO` (configuration not stated), the “bacterial growth OD600” value (polymyxin B 1 µg/mL) turned out to be 1.06. Regarding `COc1ccc(CN2CCN(C3CCCC3)C(CCO)C2)c(OC)c1C` (configuration not stated), the “bacterial growth OD600” value (polymyxin B 1 µg/mL) worked out at 0.809. Turning to `COC(=O)C1CCCCN1C(=O)c1c(OC)cc(=O)n2c1CCN(Cc1ccc3c(c1)OCO3)CC2` (configuration not stated), the “bacterial growth OD600” value (polymyxin B 0.75 µg/mL) came to 0.874. In the case of `COC(=O)[C@@H]1CCCN1C(=O)CC1(c2ccccc2C)CC(=O)N(Cc2ccncc2)C1=O` (some centres not stated), where the note is “polymyxin B 0.75 µg/mL”, the “bacterial growth OD600” value came to 0.957. As to `CC(=O)NCCC1CCN(Cc2nc(-c3ccc(C(F)(F)F)cc3)no2)CC1`, the “bacterial growth OD600” value (polymyxin B 1 µg/mL) amounted to 0.936. The same measure, in the same setting: with `COC(=O)c1sccc1S(=O)(=O)N1CCCC(C(=O)c2cccc(Cl)c2)C1` (configuration not stated) the figure was 0.002. Consider `C=CCN1CC(C(=O)N2CCc3onc(-c4ccccc4F)c3C2)CC1=O` (configuration not stated), for which, for the setting “polymyxin B 0.75 µg/mL”, the “bacterial growth OD600” value was found to be 0.816. For the compound `O=C(NCC1Cc2cccc(-c3ncccn3)c2O1)c1cccs1` (configuration not stated), for the setting “polymyxin B 0.75 µg/mL”, the “bacterial growth OD600” value turned out to be 0.957.

As to `O=C(c1ccco1)N1CCC(C2CCN(c3ncccn3)CC2)C1` (configuration not stated), for the setting “polymyxin B 0.75 µg/mL”, the “bacterial growth OD600” value was 0.842. With `CC(C)(C)CN1CC(NC2CCCCC2)CC1=O` (configuration not stated), the “bacterial growth OD600” value (polymyxin B 1 µg/mL) stood at 0.96. The same measure, in the same setting: with `O=C(NCc1cccnc1N1CCOCC1)c1cccs1` the figure was 1.02. Consider `CO[C@H]1[C@H](NC(=O)C(C)C)c2ccccc2C12CCN(C(=O)c1cc3c(nc1Cl)CCC3)CC2`, for which the “bacterial growth OD600” value (polymyxin B 0.75 µg/mL) was 0.81.

For the compound `CCN(CC)c1ncccc1CNC(=O)c1ccnc(NC)c1`, where the note is “polymyxin B 1 µg/mL”, the “bacterial growth OD600” value was found to be 0.932. As for `COc1ccc(C(CC(=O)N(C)Cc2nnc(C)o2)c2ccccc2)cc1` (configuration not stated), the “bacterial growth OD600” value (polymyxin B 1 µg/mL) turned out to be 0.917. With `COc1cccc(C2CCCN2C(=O)CCCn2nnnc2CN2CCOCC2)c1` (configuration not stated), the “bacterial growth OD600” value (polymyxin B 1 µg/mL) worked out at 1.02.

Regarding `COc1cc(CC2(CCC(=O)N3CCCC(C)C3)CCC(=O)N2)ccc1F` (configuration not stated), the “bacterial growth OD600” value (polymyxin B 0.75 µg/mL) worked out at 0.763.

For the compound `Cc1nc(N2CCCC2C(=O)NCc2cccc(C(F)(F)F)c2)nc2cc(S(C)(=O)=O)ccc12` (configuration not stated), the “bacterial growth OD600” value (polymyxin B 0.75 µg/mL) is 0.743. `Cc1c(CC(=O)N2CCC[C@H]2C(N)=O)c2c(n1Cc1ccccc1)CCCC2=O`: under “polymyxin B 1 µg/mL”, the “bacterial growth OD600” value is 1.11. In the case of `Cc1nc(CNC(=O)CCC2(Cc3ccc(Cl)cc3)CCC(=O)N2)cs1` (configuration not stated), the “bacterial growth OD600” value (polymyxin B 0.75 µg/mL) is 0.848. In the case of `COCCN1CC(C(=O)NCc2cccc(OC(F)(F)F)c2)CCC1=O` (configuration not stated), the “bacterial growth OD600” value (polymyxin B 1 µg/mL) was 1.1.

Consider `Cc1cc(C)n(Cc2cc(C(=O)NCCCN3CCOCC3)n[nH]2)n1`, for which, under “polymyxin B 1 µg/mL”, the “bacterial growth OD600” value was found to be 1.15. `COc1ccccc1C1CN(CCNC(=O)c2ccc(N3CCOCC3)cc2)Cc2ccccc2O1` (configuration not stated): the “bacterial growth OD600” value (polymyxin B 0.75 µg/mL) amounted to 0.128. In the case of `COCCn1cnc2cc(NC(=O)C3CCCCC3)cc(C(=O)N(C)CC3Cc4ccccc4O3)c21` (configuration not stated), the “bacterial growth OD600” value (polymyxin B 0.75 µg/mL) came to 0.685. Consider `COc1ccc(C(CC(=O)N2CCCC2)c2ccccc2)cc1` (configuration not stated), for which the “bacterial growth OD600” value (polymyxin B 1 µg/mL) was determined as 0.821. For the compound `Cc1ncoc1C(=O)N1CCCC(C(=O)Nc2cccc(-c3ccc(F)cc3)c2)C1` (configuration not stated), the “bacterial growth OD600” value (polymyxin B 1 µg/mL) came out at 0.868. As to `CC(C)c1cc(C(=O)N2CCc3[nH]nc(-c4ccc(Cl)cc4)c3C2)no1`, where the note is “polymyxin B 0.75 µg/mL”, the “bacterial growth OD600” value was 0.507. For `COC(=O)c1ccc(CN2CCC(CCC(=O)Nc3cccc(OC)c3)CC2)cc1`, the “bacterial growth OD600” value (polymyxin B 1 µg/mL) amounted to 0.892. For the compound `OC(Cc1ccccc1)c1ccc2c(c1)CN(Cc1cccc(F)c1F)CCO2` (configuration not stated), the “bacterial growth OD600” value (polymyxin B 0.75 µg/mL) stood at 0.121.

Consider `CCOC(=O)N1CCN(C2CCCN(C(=O)c3scc4c3CCCC4)C2)CC1` (configuration not stated), for which, where the note is “polymyxin B 1 µg/mL”, the “bacterial growth OD600” value is 0.984. Same read-out and setting: to `CCOC(=O)C1(CCOc2ccccc2)CCCN(Cc2cnn(CC)c2)C1` (configuration not stated) belongs 1.02. In the case of `O=C(C1=CCCC1)N1CCCC(N2CCN(Cc3ccc4c(c3)OCO4)CC2)C1` (configuration not stated), the “bacterial growth OD600” value (polymyxin B 0.75 µg/mL) was 0.766. For `O=C(Nc1cccc(-c2cc3ccccc3[nH]2)c1)C1CCCN(C2CCOCC2)C1` (configuration not stated), where the note is “polymyxin B 1 µg/mL”, the “bacterial growth OD600” value was determined as 0.863.
